This is an account of results in PubChem BioAssay AID1347421 (Sanford-Burnham Center for Chemical Genomics, 2020).

Protein sequences, listed by entry. Tags and fused reporters are not part of them. Lines headed by an entry give the natural chain unless they say otherwise; changes in a name come on top.
UniProt O00391: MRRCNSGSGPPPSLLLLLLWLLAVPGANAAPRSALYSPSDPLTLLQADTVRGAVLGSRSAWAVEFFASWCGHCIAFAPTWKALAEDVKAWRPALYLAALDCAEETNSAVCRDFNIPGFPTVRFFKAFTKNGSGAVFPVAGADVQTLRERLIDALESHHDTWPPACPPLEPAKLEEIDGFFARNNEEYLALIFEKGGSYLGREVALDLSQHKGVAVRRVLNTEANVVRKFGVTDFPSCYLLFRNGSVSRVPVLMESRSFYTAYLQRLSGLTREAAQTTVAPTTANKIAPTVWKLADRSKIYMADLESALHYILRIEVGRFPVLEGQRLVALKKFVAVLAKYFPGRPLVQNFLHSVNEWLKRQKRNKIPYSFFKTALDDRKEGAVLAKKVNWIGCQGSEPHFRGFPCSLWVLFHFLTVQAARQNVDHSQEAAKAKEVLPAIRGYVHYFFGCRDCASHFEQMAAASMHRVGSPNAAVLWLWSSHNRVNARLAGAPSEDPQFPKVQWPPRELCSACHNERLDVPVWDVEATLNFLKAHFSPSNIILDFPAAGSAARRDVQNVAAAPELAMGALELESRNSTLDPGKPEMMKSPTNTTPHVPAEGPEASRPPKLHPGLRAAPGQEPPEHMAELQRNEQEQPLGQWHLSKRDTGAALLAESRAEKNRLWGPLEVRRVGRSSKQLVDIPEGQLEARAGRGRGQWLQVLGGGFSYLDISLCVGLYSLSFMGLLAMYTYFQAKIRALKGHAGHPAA

Whole data set: some 1,500 compounds, median “activity” near 2, cut for the lowest 2% near -18. This is one part of the list. Calls of active or inactive are those of the source.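 Rule for the calls: active = inhibition of at least 40% at 10 µM; inconclusive = no clear call, values can overlap the other calls; inactive = the rest.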

The assay deals with Sulfhydryl oxidase 1 (Homo sapiens) (UniProt O00391). Put plainly: QSOX1 enzyme inhibitors, confirmation, biochemical, ROS-Glo luminescence, single concentration (AID 1347421).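 Note: 0% = DMSO wells with enzyme and 100% = wells lacking QSOX1 enzyme.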 As to conditions: recombinant hQSOX1, RNase A substrate, ROS-Glo H2O2 luminescence; at 10 µM.
Consider `COc1ccccc1/C=C/CN1CCNC(=O)C1CC(=O)NCCOc1cccnc1` (centres undefined), for which the activity is inactive: -2%. Take `O=C(Nc1ccccc1Br)c1ccccc1[N+](=O)[O-]`: the activity was determined as 1.2%. With `O=C1N(CC2CC2)CCCC12CCN(Cc1cccn1-c1cccnc1)C2` (centres undefined), the activity came out at 2.6%. Take `CC(C)CNC1CCCc2nc(N(C)C)ncc21` (centres undefined): the activity stood at 10.6%. As for `COc1cc(CNCc2ccccc2)c(Cl)cc1OCCO`, the figure is 0.3%. Consider `CC(NCc1c(C(=O)N2CCCC2)nc2sccn12)c1ccccc1Cl` (centres undefined), for which the activity is inactive: -3.8%. Next, `CSCCC(=O)N1CCC2(CCCN(CCc3ccccc3)C2=O)C1` (centres undefined): 5.3%; `COc1ccc(C(=O)N2CCOC(Cc3ccccc3)C2)o1` (centres undefined): inactive: -3.8%; `Cc1nc(NCC2(c3cccc(F)c3)CCOC2)nn1C(C)C` (centres undefined): 0.3%. As for `COc1ccc(CNCCn2cccn2)c(OCC(O)CN2CCCC2)c1` (centres undefined), the figure is 1.2%; as for `COC(=O)c1ccc(CNCc2cccc(OCC(O)CN3CCOCC3)c2)cc1` (centres undefined), inactive: -2.2%. For the compound `O=C(NC1CCCN(Cc2ccccc2F)C1)c1cc2ccccc2oc1=O` (centres undefined), the activity is inactive: -4.4%. Take `CCn1cc(-c2nc(-c3ccccn3)no2)cn1`: the activity was active: 44.4%. Consider `Cc1ccccc1OCC(O)CNC1CCCCC1` (centres undefined), for which the activity was inactive: -14.2%. Next, `NC(=O)c1cccnc1N1CCOC(Cc2ccccc2)C1` (centres undefined): 4.2%; `O=C(Nc1ccc(-c2nc3ccccc3[nH]2)cc1)c1ccccn1`: 5.8%. Next, `Fc1ccc(CN2CCCC3(CCN(CC4CC4)C3)C2)cc1` (centres undefined): inactive: -2.1%; `CC(C)c1ccc(NC2CCCN(C(=O)c3ccnn3C)C2)cc1` (centres undefined): 7.1%; `O=C(O)c1cn(CCOc2ccccc2)c2ccccc12`: inactive: -13.2%. On to `COc1ccccc1N1CCN(C2CCCN(Cc3cccc4nonc34)C2)CC1` (centres undefined), for which the activity was found to be 9%. Next, `c1ccc(Cc2nn3c(-c4cccs4)nnc3s2)cc1`: inactive: -5.3%; `CCOc1ccc(CN2CCNC(=O)C2CC(=O)NCCn2ccc3ccccc32)cc1` (centres undefined): inactive: -0.9%; `O=C(CCc1cccs1)N1CCc2[nH]nc(/C=C/c3ccccc3)c2C1`: 3.1%.

On to `CN(Cc1ccsc1)Cc1cnc(S(=O)(=O)CC2CC2)n1CC1CCCO1` (centres undefined), for which the activity is inactive: -1.5%. As for `O=C(CC1C(=O)NCCN1Cc1ccccn1)NC1C2CC3CC(C2)CC1C3` (centres undefined), the figure is inactive: -4.8%; as for `CN(C(=O)c1cn(Cc2cccc3ccccc23)nn1)C1CCOC1` (centres undefined), inactive: -1.3%. As for `CC(C)CCCC1CN(C(=O)Cc2cccnc2)CCO1` (centres undefined), the figure is 3%; as for `C=Cc1ccc(C(=O)N2CCOC(Cc3cccc(OC)c3)C2)cc1` (centres undefined), 2.1%; as for `CCN1CCN(c2ncc3c(n2)CC(c2ccc(OC)c(OC)c2)CC3=O)CC1` (centres undefined), inactive: -19%. As for `CCOC(=O)N1CCN(C2CCCN(C(=O)c3cc(C(C)C)no3)C2)CC1` (centres undefined), the activity was 10.8%. As for `CC(C)S(=O)(=O)c1ncc(CN(C)Cc2nccs2)n1Cc1ccccc1F`, the figure is 3.2%; as for `COc1ccc(CC2CN(C(=O)Cc3cccnc3)CCO2)cc1` (centres undefined), 2%; as for `O=C1COc2ccc(S(=O)(=O)N3CCc4ccccc43)cc2N1`, 2.6%.

As to `CN(CC(=O)NC1CCCN(CCc2ccccc2)C1)Cc1ccccn1` (centres undefined), the activity stood at 1.3%. As for `Nc1cc(=O)[nH]c(SCCOc2cccc(Cl)c2)n1`, the figure is inactive: -6.4%; as for `CCN1CCCC1CNC(=O)CCC1CCN(Cc2cc(OC)c3c(c2)OCO3)CC1` (centres undefined), 0.6%; as for `CCOc1cc(CN2CCC(CCC(=O)NCC3CCCO3)CC2)ccc1OC` (centres undefined), inactive: -3.8%. Consider `CC(=O)c1ccc(N2CCN(C(=O)c3cn(C4CCCCC4)nn3)CC2)cc1`, for which the activity came out at 2.9%. Regarding `CCn1cc(CN2CCC3(CCCN(Cc4ccc(F)cc4)C3=O)C2)cn1` (centres undefined), the activity amounted to 2%.

Regarding `C1=CCC(NCc2ccc(-c3ccn(CCCc4cccnc4)n3)o2)C1`, the activity worked out at 5.9%. On to `CCN1CCN(CC(O)COc2cccc(CNCCc3c(C)n[nH]c3C)c2)CC1` (centres undefined), for which the activity was 6.2%.

For the compound `Cc1occc1C(=O)NC1CC(=O)N(Cc2ccccc2C(F)(F)F)C1` (centres undefined), the activity turned out to be 1.2%.

Take `Cc1cccc2c3c([nH]c12)CCN(CC1(O)CCCN(C)C1=O)C3` (centres undefined): the activity is 0.7%. Next, `O=C1N(CC2CCC2)CCCC12CCN(Cc1ccc(F)cc1F)C2` (centres undefined): 4.1%. Next, `COc1ccc(CNCCc2scnc2C)c(OCC(O)CN2CCCC2)c1` (centres undefined): 5%. Turning to `CCN(CC)C1CCN(C(=O)c2ccc(OC3CCN(C(=O)CCOC)CC3)cc2)C1` (centres undefined), the activity is 4%.

For `Fc1ccccc1CN1CCCC(NCc2cccn2-c2nccs2)C1` (centres undefined), the activity amounted to 3.4%. As for `O=C1O[C@@H]2CN(C/C=C/c3ccccc3)C[C@@H]2N1Cc1ccccn1`, the figure is inactive: -4%. For the compound `CC(C)n1cc(CNC(=O)Nc2nnc(Cc3ccccc3)s2)cn1`, the activity was inactive: -2.1%. Next, `COc1ccc(CNc2ccc(S(N)(=O)=O)cc2)cc1OC`: 5.4%. Consider `O=C(NCCCOc1cccnc1)C1CCC(=O)N(CCCc2ccccc2)C1` (centres undefined), for which the activity was 12.4%.

Turning to `Cc1occc1-c1nnc2n1N=C(c1ccccc1)CS2`, the activity is inactive: -19.7%. As for `CCC1=[C+]c2c(NCc3cccnc3)nc(C)nc2S1`, the figure is inactive: -5.8%; as for `COc1ccc(NC(=O)CCc2ccccc2F)c(C)c1`, inactive: -11.4%. Next, `CCn1ccc(C(=O)N2CCN(Cc3ccc(Cl)c(Cl)c3)CC2)n1`: inactive: -2.7%; `Cc1c(Cc2ccccc2)sc(NC(=O)c2cccnc2)c1C(N)=O`: inactive: -12.9%.

As to `C=CCNCC1=CC(OC)=C(OC)[C+]=C1OC`, the activity is inactive: -0.7%. Regarding `Cc1ccc(OCCN(C)C(=O)C2CCC(=O)N(CCCN3CCOCC3)C2)cc1` (centres undefined), the activity was determined as 5.4%.

Consider `COc1cc(C(=O)O)cc(Cl)c1OCc1ccccc1`, for which the activity is inactive: -7.1%. In the case of `Cc1cc(S(=O)(=O)n2ccnc2)c(C)c(C)c1C`, the activity was inactive: -0.1%.

With `COc1cccc(C(=O)NCC2CCCN(C3CCC3)C2)c1OC` (centres undefined), the activity amounted to 7.9%. As for `Cc1ccc(S(=O)(=O)c2ncsc2Cl)cc1`, the activity worked out at 0.6%. As to `COc1ccc(CC2CN(C(=O)c3cccc(N(C)C)c3)CCO2)cc1` (centres undefined), the activity is 6.9%. On to `COCCN1CCC(CN(Cc2ccncc2)Cc2ccsc2)CC1`, for which the activity was found to be 3.4%. As for `CCOC(=O)N1CCN(C(=O)NS(=O)(=O)c2ccc(C)cc2)CC1`, the figure is inactive: -16.9%; as for `CSc1ccccc1C(=O)NC1CC(=O)N(CCCc2ccccc2)C1` (centres undefined), 0.3%; as for `CSc1nc(C(=O)N(C)C2CCCN(CCc3ccccc3)C2)cs1` (centres undefined), inactive: -2%. For `Cc1ccc(NC(=O)c2cc(C)c(C)o2)cc1C`, the activity is inactive: -0.4%. As for `Cc1ccc(Cl)cc1NC(=O)N1CCCCCC1`, the figure is inactive: -2.1%; as for `COc1ccc(NC(=O)CCC2CCCN(C(=O)C3=C(C)OCCO3)C2)c(C)c1` (centres undefined), 2.7%; as for `COc1c(C)cc(C(=O)C2CCCN(S(=O)(=O)N(C)C)C2)cc1C` (centres undefined), 3.2%. Regarding `COCCC(=O)N1CCC(Oc2ccc(C(=O)NC3CCOC3)cc2)CC1` (centres undefined), the activity was 9%. `COc1cc(CNC2CCCCCC2)ccc1OCC(O)CN1CCOCC1` (centres undefined): the activity was inactive: -2.1%. As for `COc1cc(CN2CCCN(C(C)=O)CC2)ccc1OCC(O)CN(C)C1CCCCC1` (centres undefined), the figure is 1.5%; as for `Cc1cc(OCc2ccc(C(=O)N3CCCC3)cc2)ccc1Cl`, active: 50.6%. `CCN(CC)C(=O)NCc1ccc2c(c1)OCO2`: the activity is inactive: -18.4%. Turning to `O=C(NCc1ccco1)c1ccccc1OC1CCN(C(=O)c2cccnc2)CC1`, the activity was inactive: -0.5%. As for `Cc1ncc(CN2CCC3(CCCN(Cc4cccc(F)c4F)C3=O)C2)n1C` (centres undefined), the figure is 1.3%.

Take `COc1cc(CNCc2ccc(C)s2)ccc1OCC(O)CN(C)C(C)C` (centres undefined): the activity worked out at 1.3%.

Turning to `O=C(CN1C(=O)CCNC1=O)N1CCC(OCc2ccccc2)CC1`, the activity was found to be 2.9%. As for `Cc1cc(C)c(Cn2cncn2)cc1CN1CCc2[nH]nc(-c3ccco3)c2C1`, the figure is inactive: -5.3%. Take `CCNC(=O)c1ccc(NS(=O)(=O)c2cccs2)cc1`: the activity was 14.1%.

As for `CC(C)CCCC1CN(C(=O)CCC(N)=O)CCO1` (centres undefined), the activity came to 6.8%. Next, `CCN(CC)C(=O)N(CC)Cc1ccccc1`: inactive: -0.2%; `Fc1ccccc1-c1noc2c1CN(Cc1cccc3c1OCO3)CC2`: 4.8%. Next, `O=C(c1ccsc1)N1CCCC(N2CCN(c3ccccc3F)CC2)C1` (centres undefined): 2.1%; `COc1cc(CNC2CC(=O)N(Cc3ccc(F)cc3)C2)ccc1F` (centres undefined): 4.7%; `COc1cc(-c2cnn(CC(=O)Nc3ccnn3-c3ccccc3)c2)ncn1`: 1%. Turning to `Cc1nccn1CC1CCCN(C(=O)Nc2nnc(Cc3ccccc3)s2)C1` (centres undefined), the activity is inactive: -1.8%. Take `OC(COc1ccccc1CNCCc1cnccn1)CN1CCSCC1` (centres undefined): the activity turned out to be 7.9%. `CN(C)CCC1CN(C(=O)C#Cc2ccccc2)CCO1` (centres undefined): the activity was inactive: -0.3%. As to `Cc1ccccc1CNCC1(O)CCCN(CC(C)(C)C)C1=O` (centres undefined), the activity amounted to 7.2%. As for `COc1ccccc1CCCNC(=O)C1CCC(=O)N(CCCN2CCCC2=O)C1` (centres undefined), the figure is 1.1%; as for `COc1cccc(CC2CN(CCCSC)CCO2)c1` (centres undefined), 1.7%. Take `CC(=O)NC1CC(C)(C)Cc2c1cnn2-c1cccc(F)c1` (centres undefined): the activity is 5.6%.

As for `COc1ccc(NC(=O)NCCN2CCN(c3cc(OC)ccc3OC)CC2)cc1`, the activity is inactive: -1.7%. Next, `CC(C)c1ccc(CN2CCCC3(CCN(C(=O)Cn4cccn4)C3)C2=O)cc1` (centres undefined): 0.8%; `COc1cc(CN(C)Cc2c(C)n[nH]c2C)ccc1OCC(O)CN(C)C(C)C` (centres undefined): 0.8%. As to `CN1CCCCCC1C(=O)N1CCC(CCC(=O)Nc2ccccc2)CC1` (centres undefined), the activity is 3.9%.

Consider `CCc1nc(C)c(C(=O)NC2CCCN(CCCc3ccccc3)C2)o1` (centres undefined), for which the activity came to 4.8%. For `CSc1ccc(CN2CCC(CCC(=O)NCCN(C)C)CC2)cc1`, the activity came out at 1.7%. Next, `Cc1nc(C)c(C(=O)NC2CC(=O)N(C3CCCCCC3)C2)s1` (centres undefined): 1.2%. Next, `CN(Cc1ccncn1)C(=O)CC1C(=O)NCCN1CC(c1ccccc1)c1ccccc1` (centres undefined): 2%.

Turning to `CC(=O)NCC(=O)N1CCCC(CCc2ccccc2C(F)(F)F)C1` (centres undefined), the activity was 8.9%.

Consider `CN(C)CC(=O)NC1CC(=O)N(CCc2ccccc2)C1` (centres undefined), for which the activity is 18.6%. Next, `FC(F)(F)c1cc(-c2ccco2)nc(N2CCCCC2)n1`: inactive: -20.8%; `C=CCN(CC=C)C(=O)C1CCN(C2CCN(Cc3cccc(C)n3)CC2)CC1`: 1.9%; `Cc1cc(CN2CCCC2c2ccc(C(=O)NCCc3ccccn3)s2)n[nH]1` (centres undefined): 0.3%. Turning to `COc1ccc(CNCCSC)cc1OCC(O)CN(C)C(C)C` (centres undefined), the activity came to 1.6%.
